Source: US8618063B2, “Method for treating a synucleinopathy” (The Board of Trustees of the University of Illinois, priority 2008, dated 2013)
Some of these results come from one statement about several compounds together. At least one compound was matched to its structure with a doubt left.

Test system: neurotransmission at squid giant synapse
Experiment: Squid giant synapse: neurotransmission after presynaptic injection
Format: cell-based
Conditions: injected into presynaptic side of squid giant synapse
Experimental: If they both work by activating PKC and increasing retrograde transport, they might affect availability of synaptic vesicle components in presynaptic terminals. Accordingly, either wild-type α-synuclein, Ala30Pro α-synuclein, or MPP+ were injected into the presynaptic side of the squid giant synapse as described for synaptic vesicles and synapsin (McGuinness, et al. (1989) J. Neurosci. 9:4138-4149; Llinas, et al. (1989) Proc. Nat. Acad. Sci. USA 86:5656-5660). This preparation has been used to evaluate the effects of reagents on presynaptic function by injecting, then stimulating the presynaptic side while recording intracellularly on both pre- and post-synaptic sides (Llinas, et al. (2004) Proc. Natl. Acad. Sci. USA 101:17855-60; Sugimori, et al. (1998) Neuroscience 86:39-51).

For `C[n+]1ccc(-c2ccccc2)cc1` [MPP+], the “time to failure of neurotransmission and block of postsynaptic response” value was no less than 30 min.
